Measurements: the supplement of paper PMC10849652
The other results are listed elsewhere or left out.

Chains of the proteins cited; added tags and fusions are not shown. Lines headed by an entry give the natural chain unless they say otherwise; changes in a name come on top.
UniProt Q9NQE9: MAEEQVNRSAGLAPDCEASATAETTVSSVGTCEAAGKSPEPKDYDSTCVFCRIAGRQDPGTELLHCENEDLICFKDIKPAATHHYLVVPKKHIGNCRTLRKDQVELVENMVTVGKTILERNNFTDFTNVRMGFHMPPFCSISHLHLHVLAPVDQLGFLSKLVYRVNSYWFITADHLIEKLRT
UniProt P50135: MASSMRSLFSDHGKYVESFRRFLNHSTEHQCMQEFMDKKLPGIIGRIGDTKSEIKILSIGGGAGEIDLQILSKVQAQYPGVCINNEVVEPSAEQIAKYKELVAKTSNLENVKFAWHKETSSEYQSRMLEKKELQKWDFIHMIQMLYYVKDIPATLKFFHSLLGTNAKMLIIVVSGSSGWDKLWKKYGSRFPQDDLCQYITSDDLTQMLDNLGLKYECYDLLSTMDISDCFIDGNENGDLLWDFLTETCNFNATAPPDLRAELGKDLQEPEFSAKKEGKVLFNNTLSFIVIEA
UniProt O43390: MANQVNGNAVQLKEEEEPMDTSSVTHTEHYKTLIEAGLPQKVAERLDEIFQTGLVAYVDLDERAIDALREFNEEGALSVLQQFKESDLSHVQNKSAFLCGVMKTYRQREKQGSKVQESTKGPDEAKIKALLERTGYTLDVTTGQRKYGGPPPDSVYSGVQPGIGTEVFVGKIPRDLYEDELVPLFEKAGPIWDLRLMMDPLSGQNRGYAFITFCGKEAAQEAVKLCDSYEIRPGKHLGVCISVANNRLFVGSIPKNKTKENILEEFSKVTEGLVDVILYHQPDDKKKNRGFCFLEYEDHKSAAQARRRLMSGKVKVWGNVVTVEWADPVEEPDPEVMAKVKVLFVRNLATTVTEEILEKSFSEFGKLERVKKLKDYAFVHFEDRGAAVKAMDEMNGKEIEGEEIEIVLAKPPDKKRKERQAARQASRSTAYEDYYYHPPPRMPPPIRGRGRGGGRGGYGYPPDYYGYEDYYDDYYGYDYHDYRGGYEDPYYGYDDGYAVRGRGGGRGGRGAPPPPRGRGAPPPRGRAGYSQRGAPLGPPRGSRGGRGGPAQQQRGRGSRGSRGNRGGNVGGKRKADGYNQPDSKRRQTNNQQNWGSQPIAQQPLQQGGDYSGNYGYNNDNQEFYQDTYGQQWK
UniProt Q5SSJ5: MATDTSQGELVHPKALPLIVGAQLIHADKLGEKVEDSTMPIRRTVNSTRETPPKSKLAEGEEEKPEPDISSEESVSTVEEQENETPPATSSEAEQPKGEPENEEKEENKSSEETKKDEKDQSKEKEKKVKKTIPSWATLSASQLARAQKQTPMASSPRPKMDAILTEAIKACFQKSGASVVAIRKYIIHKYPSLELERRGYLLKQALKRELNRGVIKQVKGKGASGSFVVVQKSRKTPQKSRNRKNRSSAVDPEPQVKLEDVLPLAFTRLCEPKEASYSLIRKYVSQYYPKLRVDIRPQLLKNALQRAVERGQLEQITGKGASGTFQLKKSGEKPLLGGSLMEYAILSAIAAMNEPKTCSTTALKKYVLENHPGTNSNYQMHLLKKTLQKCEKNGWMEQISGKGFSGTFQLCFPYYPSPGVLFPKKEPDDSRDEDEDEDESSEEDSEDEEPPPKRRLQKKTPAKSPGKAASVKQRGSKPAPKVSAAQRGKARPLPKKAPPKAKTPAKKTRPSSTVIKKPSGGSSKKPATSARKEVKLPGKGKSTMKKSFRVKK
UniProt Q9NWY4: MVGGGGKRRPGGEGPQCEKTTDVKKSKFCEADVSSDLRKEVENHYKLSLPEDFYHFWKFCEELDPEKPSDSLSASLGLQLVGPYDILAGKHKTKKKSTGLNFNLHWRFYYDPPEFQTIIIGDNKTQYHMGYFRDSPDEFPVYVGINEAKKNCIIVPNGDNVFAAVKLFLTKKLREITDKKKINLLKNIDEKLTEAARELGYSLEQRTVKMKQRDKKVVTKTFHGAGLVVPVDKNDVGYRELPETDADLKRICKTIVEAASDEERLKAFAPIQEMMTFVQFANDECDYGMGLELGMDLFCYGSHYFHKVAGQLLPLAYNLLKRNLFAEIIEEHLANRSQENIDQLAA
UniProt P22626: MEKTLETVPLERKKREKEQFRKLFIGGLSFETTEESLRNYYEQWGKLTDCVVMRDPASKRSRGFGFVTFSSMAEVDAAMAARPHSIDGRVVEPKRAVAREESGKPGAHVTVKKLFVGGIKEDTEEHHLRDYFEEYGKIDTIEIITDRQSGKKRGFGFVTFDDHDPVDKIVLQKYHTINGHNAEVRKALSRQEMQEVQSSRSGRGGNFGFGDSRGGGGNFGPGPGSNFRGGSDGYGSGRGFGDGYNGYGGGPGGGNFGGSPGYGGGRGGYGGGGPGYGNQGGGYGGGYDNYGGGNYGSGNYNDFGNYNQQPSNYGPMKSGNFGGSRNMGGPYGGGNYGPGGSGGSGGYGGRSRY
UniProt P17482: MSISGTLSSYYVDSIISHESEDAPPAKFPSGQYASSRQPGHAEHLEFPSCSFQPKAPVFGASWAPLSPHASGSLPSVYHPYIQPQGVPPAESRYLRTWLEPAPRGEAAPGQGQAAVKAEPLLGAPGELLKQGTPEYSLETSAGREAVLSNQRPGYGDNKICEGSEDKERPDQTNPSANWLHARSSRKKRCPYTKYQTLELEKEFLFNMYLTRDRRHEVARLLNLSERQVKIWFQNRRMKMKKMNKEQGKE
UniProt P54198, whole entry, looked up: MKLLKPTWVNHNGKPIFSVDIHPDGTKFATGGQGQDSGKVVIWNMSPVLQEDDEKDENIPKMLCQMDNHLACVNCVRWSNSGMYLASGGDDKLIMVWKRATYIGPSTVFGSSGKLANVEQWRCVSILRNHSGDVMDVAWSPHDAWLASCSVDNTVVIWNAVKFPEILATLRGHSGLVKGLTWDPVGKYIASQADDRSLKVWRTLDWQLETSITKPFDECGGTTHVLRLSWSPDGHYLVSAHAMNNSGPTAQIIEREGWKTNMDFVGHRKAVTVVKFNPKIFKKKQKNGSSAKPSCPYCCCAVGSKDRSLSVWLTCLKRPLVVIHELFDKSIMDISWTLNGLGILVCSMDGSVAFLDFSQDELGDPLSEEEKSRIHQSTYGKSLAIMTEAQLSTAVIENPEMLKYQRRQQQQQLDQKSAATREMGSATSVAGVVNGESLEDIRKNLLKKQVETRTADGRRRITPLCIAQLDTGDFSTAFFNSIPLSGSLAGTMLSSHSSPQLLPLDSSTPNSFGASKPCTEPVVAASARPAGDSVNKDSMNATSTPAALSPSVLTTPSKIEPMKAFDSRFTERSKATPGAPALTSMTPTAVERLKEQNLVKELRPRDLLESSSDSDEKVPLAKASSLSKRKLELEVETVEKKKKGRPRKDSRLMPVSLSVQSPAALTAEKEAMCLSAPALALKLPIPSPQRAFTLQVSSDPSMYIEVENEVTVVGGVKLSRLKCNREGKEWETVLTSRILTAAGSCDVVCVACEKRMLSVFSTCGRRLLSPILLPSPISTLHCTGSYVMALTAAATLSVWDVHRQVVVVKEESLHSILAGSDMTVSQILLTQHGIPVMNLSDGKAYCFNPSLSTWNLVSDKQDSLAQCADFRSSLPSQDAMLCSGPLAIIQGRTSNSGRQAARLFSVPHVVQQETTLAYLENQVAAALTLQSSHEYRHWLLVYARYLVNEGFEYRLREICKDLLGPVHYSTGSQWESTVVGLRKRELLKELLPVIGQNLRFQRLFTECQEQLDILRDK
UniProt Q8NCD3, whole entry, looked up: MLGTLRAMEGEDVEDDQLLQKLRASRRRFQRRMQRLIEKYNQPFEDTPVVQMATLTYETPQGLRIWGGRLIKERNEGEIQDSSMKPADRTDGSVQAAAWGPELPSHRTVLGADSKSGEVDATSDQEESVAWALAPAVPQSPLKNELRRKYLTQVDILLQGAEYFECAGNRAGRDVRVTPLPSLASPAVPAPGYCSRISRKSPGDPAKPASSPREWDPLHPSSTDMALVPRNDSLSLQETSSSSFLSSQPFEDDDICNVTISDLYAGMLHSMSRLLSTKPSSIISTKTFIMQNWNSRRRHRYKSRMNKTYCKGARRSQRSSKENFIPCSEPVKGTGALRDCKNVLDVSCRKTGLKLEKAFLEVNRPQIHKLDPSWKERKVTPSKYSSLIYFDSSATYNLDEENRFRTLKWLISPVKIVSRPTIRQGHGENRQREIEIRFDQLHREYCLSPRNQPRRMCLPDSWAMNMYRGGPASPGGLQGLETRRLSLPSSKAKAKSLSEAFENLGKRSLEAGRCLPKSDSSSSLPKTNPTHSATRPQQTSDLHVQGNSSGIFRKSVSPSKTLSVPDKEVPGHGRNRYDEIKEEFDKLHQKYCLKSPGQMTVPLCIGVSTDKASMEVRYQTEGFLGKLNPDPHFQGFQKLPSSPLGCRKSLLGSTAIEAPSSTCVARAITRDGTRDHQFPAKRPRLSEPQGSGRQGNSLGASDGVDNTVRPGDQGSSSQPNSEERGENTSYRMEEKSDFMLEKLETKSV
UniProt Q8WVB3: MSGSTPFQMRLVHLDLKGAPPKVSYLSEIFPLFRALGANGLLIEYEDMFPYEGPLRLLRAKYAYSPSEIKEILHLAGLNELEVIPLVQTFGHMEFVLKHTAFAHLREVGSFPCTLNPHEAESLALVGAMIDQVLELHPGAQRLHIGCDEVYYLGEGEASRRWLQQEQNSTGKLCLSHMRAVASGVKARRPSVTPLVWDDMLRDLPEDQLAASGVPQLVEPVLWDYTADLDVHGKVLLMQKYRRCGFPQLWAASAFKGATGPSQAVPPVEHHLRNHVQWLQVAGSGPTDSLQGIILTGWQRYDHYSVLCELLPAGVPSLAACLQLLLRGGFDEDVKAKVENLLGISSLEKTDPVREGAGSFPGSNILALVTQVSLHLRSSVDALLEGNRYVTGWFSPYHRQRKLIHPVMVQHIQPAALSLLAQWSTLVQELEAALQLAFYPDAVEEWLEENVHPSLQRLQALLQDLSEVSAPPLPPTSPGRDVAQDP
UniProt P19367: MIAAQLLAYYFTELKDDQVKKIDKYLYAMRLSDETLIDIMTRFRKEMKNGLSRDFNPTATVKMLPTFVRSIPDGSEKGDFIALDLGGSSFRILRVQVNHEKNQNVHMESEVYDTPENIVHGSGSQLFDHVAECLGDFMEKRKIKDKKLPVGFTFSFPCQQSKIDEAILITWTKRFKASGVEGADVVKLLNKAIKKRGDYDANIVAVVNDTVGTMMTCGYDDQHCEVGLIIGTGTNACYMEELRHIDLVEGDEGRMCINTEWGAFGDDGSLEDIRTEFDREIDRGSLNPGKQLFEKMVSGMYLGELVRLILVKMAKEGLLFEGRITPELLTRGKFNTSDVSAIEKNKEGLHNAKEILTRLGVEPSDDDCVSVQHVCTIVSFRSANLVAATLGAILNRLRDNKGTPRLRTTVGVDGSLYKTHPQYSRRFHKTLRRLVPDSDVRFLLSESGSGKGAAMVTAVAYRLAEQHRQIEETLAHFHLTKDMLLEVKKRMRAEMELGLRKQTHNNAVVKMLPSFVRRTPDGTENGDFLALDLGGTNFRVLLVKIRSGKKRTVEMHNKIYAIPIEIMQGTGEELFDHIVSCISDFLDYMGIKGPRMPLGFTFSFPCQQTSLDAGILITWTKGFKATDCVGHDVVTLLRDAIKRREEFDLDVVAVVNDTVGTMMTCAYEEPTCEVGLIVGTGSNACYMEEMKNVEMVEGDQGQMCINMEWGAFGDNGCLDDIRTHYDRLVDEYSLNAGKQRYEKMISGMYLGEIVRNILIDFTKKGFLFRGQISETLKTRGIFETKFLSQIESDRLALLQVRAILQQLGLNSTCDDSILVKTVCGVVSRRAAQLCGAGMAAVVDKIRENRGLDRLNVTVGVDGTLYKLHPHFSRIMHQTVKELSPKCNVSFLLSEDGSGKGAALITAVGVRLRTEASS
UniProt Q9NQG7: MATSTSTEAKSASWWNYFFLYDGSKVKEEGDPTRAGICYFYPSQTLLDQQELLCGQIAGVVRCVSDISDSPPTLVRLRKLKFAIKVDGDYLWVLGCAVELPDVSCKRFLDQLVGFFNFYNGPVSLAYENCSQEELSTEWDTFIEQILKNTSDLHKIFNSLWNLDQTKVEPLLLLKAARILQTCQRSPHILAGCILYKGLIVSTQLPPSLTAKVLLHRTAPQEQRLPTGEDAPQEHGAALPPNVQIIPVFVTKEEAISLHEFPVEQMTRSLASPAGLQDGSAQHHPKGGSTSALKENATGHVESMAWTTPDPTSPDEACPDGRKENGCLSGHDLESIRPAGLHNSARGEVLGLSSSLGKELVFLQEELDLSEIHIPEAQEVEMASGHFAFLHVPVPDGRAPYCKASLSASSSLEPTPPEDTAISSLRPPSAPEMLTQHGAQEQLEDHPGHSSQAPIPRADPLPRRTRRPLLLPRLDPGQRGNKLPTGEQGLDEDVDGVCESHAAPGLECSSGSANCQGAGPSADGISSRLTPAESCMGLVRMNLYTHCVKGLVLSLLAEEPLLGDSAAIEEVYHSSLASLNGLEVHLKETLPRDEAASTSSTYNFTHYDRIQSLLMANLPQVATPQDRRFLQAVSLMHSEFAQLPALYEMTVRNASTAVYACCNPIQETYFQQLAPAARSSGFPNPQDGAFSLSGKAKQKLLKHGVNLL

Compound: CC[C@@H]1C(=O)N(C)c2cnc(Nc3ccc(C(=O)N[C@H]4CC[C@H](N5CCN(CC6CC6)CC5)CC4)cc3OC)nc2N1C(C)C [volasertib]
Assay: log2 fold change, soluble protein after heating vs DMSO (PISA); higher = thermal stabilisation; K562 lysate, 10 uM; active = over 0.2 and 3.5 SD of the protein, either way, in both replicates (recomputed)
Outline: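 K562 pellets were dounce-homogenised in PBS pH 7.4 containing 1 mM MgCl2, and the crude extract, at 1 mg/mL protein, was exposed to 10 μM compound for 30 min. Aliquots were heated for 3 min across 48°C-58°C, pooled, brought to 0.5% NP-40 at 4°C and spun at 21,000xg for 90 min, with the supernatant taken as soluble protein. TMTpro 16plex LC-MS/MS with equalised channel sums quantified that protein. Values are log-two fold changes in thermal stability relative to solvent controls, taken from duplicates.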

Target | log2 fold change
HOOK3 (UniProt Q86VS8) | inactive: -0.003
HINT3 (UniProt Q9NQE9) | inactive: -0.048
HPS5 (UniProt Q9UPZ3) | inactive: -0.008
HNMT (UniProt P50135) | inactive: -0.042
HNRNPR isoform 2 (UniProt O43390) | inactive: -0.011
HSPA1A (UniProt P0DMV8) | inactive: -0.024
HSD17B7 (UniProt P56937) | inactive: 0.025
HP1BP3 (UniProt Q5SSJ5) | inactive: -0.006
HPF1 (UniProt Q9NWY4) | inactive: -0.103
HECTD4 (UniProt J3KPF0) | inactive: -0.09
HNRNPA2B1 (UniProt P22626) | inactive: -0.003
HOXB9 (UniProt P17482) | inactive: -0.027
HPS1 (UniProt Q92902) | inactive: -0.008
HOXB4 (UniProt P17483) | inactive: -0.034
HIRA (UniProt P54198) | inactive: 0.008
HJURP (UniProt Q8NCD3) | inactive: -0.06
HEXD isoform 2 (UniProt Q8WVB3) | inactive: -0.007
HK1 isoform 2 (UniProt P19367) | inactive: -0.004
HEATR6 (UniProt Q6AI08) | inactive: -0.019
HNRNPF (UniProt P52597) | inactive: -0.065
HPS4 isoform 4 (UniProt Q9NQG7) | inactive: -0.006
HSCB (UniProt Q8IWL3) | inactive: 0.057
HSP90AA1 isoform 2 (UniProt P07900) | inactive: 0.001
HGH1 (UniProt Q9BTY7) | inactive: -0.039

Rewritten tab-delimited: entries from further up.
Target	log2 fold change
HOXB4 (UniProt P17483)	inactive: -0.034
HIRA (UniProt P54198)	inactive: 0.008
